Reference: PubChem BioAssay AID1159578 (Peter MacCallum Cancer Centre, 2015)
This is one part, drawn at random, of about 18,000 reagents tested. About 1,030 of all reagents (5.7%) count as active. 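Inactive calls also include pools with fewer than 3300 nuclei, whose migration was not assessed.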 Raw values are not corrected between plates.

Assay: 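Knock-downs that alter how fast lymphatic endothelial cells migrate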 (primary screen)
Cell system: human lymphatic endothelial cells
Knock-down reagent: siRNA pool against human genes, 40 nM
Timing: 48 h after transfection
Detection: 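High-content imaging of dye-stained cells in a scratch assay measures filled wound area and nuclei per well; duplicate means given as ratio to mock and robust z-score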
Direction: migration robust z-score: higher = faster migration into the scratch; migration relative to mock: higher = more scratch area covered than mock; nuclei per well: higher = more cells in the well
Active means: 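Migration changed when robust z exceeds 2 or falls below -2 and mean nuclei number is at least 3300; otherwise not called changed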
Meaning of the calls: active = migration changed; inactive = no migration change, or too few cells

Target gene | migration robust z-score | migration class with cell-count check | migration relative to mock | nuclei per well, duplicate mean | outcome
SCD | -1.79 | migration z between -2 and 2; enough cells | 0.46 | 6098 | inactive
HECTD1 | 0.47 | migration z between -2 and 2; enough cells | 0.89 | 5220 | inactive
UGT2A3 | -0.11 | migration z between -2 and 2; enough cells | 0.78 | 6715 | inactive
CSF2 | 0.78 | migration z between -2 and 2; enough cells | 0.96 | 4708 | inactive
OR7D4 | 0.86 | migration z between -2 and 2; enough cells | 1.1 | 5608 | inactive
GSS | -2.28 | migration z below -2; enough cells | 0.36 | 5097 | active
MTMR2 | -0.7 | migration z between -2 and 2; enough cells | 0.67 | 5141 | inactive
DHFR | -0.31 | migration z between -2 and 2; enough cells | 0.74 | 5527 | inactive
ANP32D | 0.13 | migration z between -2 and 2; enough cells | 0.92 | 5952 | inactive
TNIP2 | 0.7 | migration z between -2 and 2; enough cells | 1.06 | 5286 | inactive
MGST1 | 1.6 | migration z between -2 and 2; enough cells | 1.12 | 5908 | inactive
TMEM252 | 0.04 | migration z between -2 and 2; enough cells | 0.9 | 5512 | inactive
TMC5 | -0.26 | migration z between -2 and 2; enough cells | 0.82 | 5352 | inactive
PIBF1 | -0.74 | migration z between -2 and 2; enough cells | 0.69 | 6141 | inactive
RNF32 | 1.17 | migration z between -2 and 2; enough cells | 1.03 | 5604 | inactive
MFSD6L | 0.44 | migration z between -2 and 2; enough cells | 1 | 5720 | inactive
TIMELESS | 1.14 | migration z between -2 and 2; enough cells | 1.18 | 4046 | inactive
TMEM207 | -1.94 | migration z between -2 and 2; enough cells | 0.38 | 3834 | inactive
GNPNAT1 | 0.03 | migration z between -2 and 2; enough cells | 0.81 | 5955 | inactive
HPSE | -0.2 | migration z between -2 and 2; enough cells | 0.76 | 4894 | inactive
BEND7 | -0.3 | migration z between -2 and 2; enough cells | 0.8 | 4840 | inactive
OCLN | 0.31 | migration z between -2 and 2; enough cells | 0.86 | 5840 | inactive
KRT25 | 0.8 | migration z between -2 and 2; enough cells | 1.09 | 5820 | inactive
PRPS1L1 | -1.25 | migration z between -2 and 2; enough cells | 0.56 | 5284 | inactive
OR8D4 | -0.57 | migration z between -2 and 2; enough cells | 0.74 | 5700 | inactive
AGO2 | -0.46 | migration z between -2 and 2; enough cells | 0.72 | 6433 | inactive
ATCAY | 0.98 | migration z between -2 and 2; enough cells | 1.14 | 5718 | inactive
TTI1 | 0.64 | migration z between -2 and 2; enough cells | 1.05 | 5800 | inactive
PKD1L1-AS1 | -0.93 | migration z between -2 and 2; enough cells | 0.64 | 3838 | inactive
TRAPPC9 | -1.29 | migration z between -2 and 2; enough cells | 0.54 | 4939 | inactive
DEFB105B | -0.48 | migration z between -2 and 2; enough cells | 0.76 | 5958 | inactive
TMEM87B | 0.76 | migration z between -2 and 2; enough cells | 1.08 | 6277 | inactive
FLRT3 | 0.87 | migration z between -2 and 2; enough cells | 1.11 | 7162 | inactive
TMPRSS3 | -0.68 | migration z between -2 and 2; enough cells | 0.68 | 5654 | inactive
ESPN | -1.46 | migration z between -2 and 2; enough cells | 0.5 | 4587 | inactive
BANP | 0.52 | migration z between -2 and 2; enough cells | 1.02 | 4249 | inactive
FZD2 | -0.1 | migration z between -2 and 2; enough cells | 0.78 | 5202 | inactive
LARP1 | -0.84 | migration z between -2 and 2; enough cells | 0.66 | 6066 | inactive
SLC5A5 | -0.91 | migration z between -2 and 2; enough cells | 0.63 | 4832 | inactive
TDP1 | -0.7 | migration z between -2 and 2; enough cells | 0.67 | 5132 | inactive
DIAPH1 | 0.7 | migration z between -2 and 2; enough cells | 1.06 | 5240 | inactive
AFF2 | 1.94 | migration z between -2 and 2; enough cells | 1.39 | 5733 | inactive
VPS51 | -0.66 | migration z between -2 and 2; enough cells | 0.72 | 5552 | inactive
DNAAF2 | -0.82 | migration z between -2 and 2; enough cells | 0.68 | 5872 | inactive
HCK | 0.02 | migration z between -2 and 2; enough cells | 0.81 | 5308 | inactive
GRB2 | -0.65 | migration z between -2 and 2; enough cells | 0.68 | 5152 | inactive
MED19 | -1.83 | migration z between -2 and 2; enough cells | 0.42 | 4160 | inactive
MSS51 | -1.06 | migration z between -2 and 2; enough cells | 0.62 | 5564 | inactive
ADAM28 | -0.29 | migration z between -2 and 2; enough cells | 0.75 | 5360 | inactive
SEPTIN1 | -0.03 | migration z between -2 and 2; enough cells | 0.8 | 5000 | inactive
ZMYND10 | -0.1 | migration z between -2 and 2; enough cells | 0.86 | 7806 | inactive
KRTAP21-1 | -2.04 | migration z below -2; enough cells | 0.36 | 4732 | active
PLEKHO2 | -1.36 | migration z between -2 and 2; enough cells | 0.53 | 5468 | inactive
HDAC4 | 0.16 | migration z between -2 and 2; enough cells | 0.84 | 4438 | inactive
PRRT3 | -0.6 | migration z between -2 and 2; enough cells | 0.73 | 6024 | inactive
NCAPH | 0.68 | migration z between -2 and 2; enough cells | 1.06 | 5222 | inactive
ARAF | -0.73 | migration z between -2 and 2; enough cells | 0.66 | 5294 | inactive
TRPT1 | -1.05 | migration z between -2 and 2; enough cells | 0.61 | 5796 | inactive
NRG1 | -0.57 | migration z between -2 and 2; enough cells | 0.7 | 3400 | inactive
NPTX2 | 0.62 | migration z between -2 and 2; enough cells | 1.04 | 5746 | inactive
PCGF2 | -1.58 | migration z between -2 and 2; enough cells | 0.5 | 6098 | inactive
RELB | 0.24 | migration z between -2 and 2; enough cells | 0.85 | 5302 | inactive
CUTA | 0.46 | migration z between -2 and 2; enough cells | 1.01 | 5402 | inactive
TRIM42 | 0.39 | migration z between -2 and 2; enough cells | 0.88 | 5100 | inactive
SERTAD3 | -0.49 | migration z between -2 and 2; enough cells | 0.76 | 5206 | inactive
TIMP4 | 1.31 | migration z between -2 and 2; enough cells | 1.23 | 6306 | inactive
VPS13D | 0.31 | migration z between -2 and 2; enough cells | 0.96 | 5990 | inactive
FLYWCH2 | -0.73 | migration z between -2 and 2; enough cells | 0.7 | 4386 | inactive
PVRIG | 0.44 | migration z between -2 and 2; enough cells | 1 | 6188 | inactive
LENG8 | 0.02 | migration z between -2 and 2; enough cells | 0.89 | 5816 | inactive
PIGB | 0.36 | migration z between -2 and 2; enough cells | 0.88 | 7298 | inactive
OR5M3 | 0.3 | migration z between -2 and 2; enough cells | 0.97 | 5630 | inactive
FGF6 | -0.5 | migration z between -2 and 2; enough cells | 0.71 | 4348 | inactive

Records above whose gene name begins with A or a (6):
Target gene | migration robust z-score | migration class with cell-count check | migration relative to mock | nuclei per well, duplicate mean | outcome
ANP32D | 0.13 | migration z between -2 and 2; enough cells | 0.92 | 5952 | inactive
AGO2 | -0.46 | migration z between -2 and 2; enough cells | 0.72 | 6433 | inactive
ATCAY | 0.98 | migration z between -2 and 2; enough cells | 1.14 | 5718 | inactive
AFF2 | 1.94 | migration z between -2 and 2; enough cells | 1.39 | 5733 | inactive
ADAM28 | -0.29 | migration z between -2 and 2; enough cells | 0.75 | 5360 | inactive
ARAF | -0.73 | migration z between -2 and 2; enough cells | 0.66 | 5294 | inactive
